Where “and” joins values, the source holds several entries; their conditions need not be identical. Identical values can stand only once. About 17,000 (5.5%) of roughly 310,000 compounds were called active. The inconclusive results got no clear call from the source; some entries with a clear call stand among them for comparison. The call rests on the fitted dose curve; in most records, active means well fitted inhibition curve with a large enough effect; inconclusive means small, poorly fitted or top-dose-only effect, or effect the other way; inactive means no such curve, though single readings can be large or run the other way. Where the call is inconclusive, the potency comes from a doubtful curve fit.
These molecules were tested against Nuclear receptor ROR-gamma (Mus musculus) (UniProt P51450) (assay: qHTS for inhibitors of ROR gamma transcriptional activity). Conditions: Drosophila S2 Gal4-RORgamma UAS-luciferase reporter, 20 h; activity change, negative = inhibition: at 53.6 µM (top of the series).
How it was run: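 Schneider cells (Drosophila), stable Gal4 DBD–ROR gamma + UAS-luc; 1 hr cmpd preincubation; Cu2+ induction 700 uM final; 20 hr ambient; luminescence.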
Further: nearly all actives have a fitted effect of over 60% in size.
On the % scale 0 is the no-effect control and ±100 the full control effect; potency means the concentration at half of the fitted maximal effect.

Chains of the proteins cited; added tags and fusions are not shown. Lines headed by an entry give the natural chain unless they say otherwise; changes in a name come on top.
UniProt P51450: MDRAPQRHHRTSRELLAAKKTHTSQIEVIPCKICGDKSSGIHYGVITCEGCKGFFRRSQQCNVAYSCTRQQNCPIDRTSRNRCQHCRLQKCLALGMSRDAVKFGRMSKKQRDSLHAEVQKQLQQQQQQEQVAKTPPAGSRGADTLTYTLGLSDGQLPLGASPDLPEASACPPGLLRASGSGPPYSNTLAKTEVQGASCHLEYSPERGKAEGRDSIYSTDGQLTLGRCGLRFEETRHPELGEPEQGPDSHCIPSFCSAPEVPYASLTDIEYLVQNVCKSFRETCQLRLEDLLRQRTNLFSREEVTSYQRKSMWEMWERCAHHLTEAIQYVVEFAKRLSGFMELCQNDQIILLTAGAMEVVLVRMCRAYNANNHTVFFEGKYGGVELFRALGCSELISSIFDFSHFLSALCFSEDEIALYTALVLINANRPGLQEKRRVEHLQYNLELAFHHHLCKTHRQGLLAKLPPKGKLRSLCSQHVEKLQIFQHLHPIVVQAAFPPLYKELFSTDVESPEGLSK

Row | SMILES | Potency | activity change, negative = inhibition
1 | O=c1c2ccccc2nc(-c2ccccc2)n1Cc1ccc(Cl)cc1 | inconclusive: 35.5 µM [activator, single point] | 
2 | CN(C)C(CNC(=O)c1ccc(-c2ccccc2)cc1)c1ccccc1 (stereo not drawn) |  | inactive: 2.37%
3 | COc1ccc(C(O)(C2CCCCC2)C(CN2CCCC2)c2ccccc2)cc1 (stereo not drawn) |  | inactive: -4.22%
4 | O=C(Cc1ccc(Br)cc1)OCC(=O)c1ccc2c(c1)OCCO2 |  | inactive: 29.6%
5 | CN1Cc2sc(NC(=S)NC(=O)c3ccccc3)c(C#N)c2CC1(C)C | active: 3.16 µM | 
6 | COc1ccc(C(C(=O)NC2CCCC2)N(Cc2cccnc2)C(=O)Cc2cccs2)c(OC)c1 (stereo not drawn) | active: 10 µM | 
7 | O=c1ccc2cc(S(=O)(=O)Nc3ccc(Br)cc3)ccc2o1 | inconclusive: 17.8 µM [activator, partial curve] | 
8 | N#CC1=C(S)N(c2ccccc2)C(c2cccs2)NC1=O (stereo not drawn) |  | inactive: -10.6%
9 | NS(=O)(=O)c1cccc(NS(=O)(=O)c2ccc(/C=C/C(=O)O)cc2)c1 |  | inactive: 27%
10 | O=C(NC1CCCCC1)OCCN1CCN(Cc2ccccc2)CCC1=O |  | inactive: 0.729%
11 | Cn1c2c(c(=O)[nH]c1=O)C(c1ccc(O)cc1)C1=C(N2)c2ccccc2C1=O (stereo not drawn) |  | inactive: -43.9%
12 | CCC(C)NCCC(=O)Nc1ccc(Cl)c(S(=O)(=O)Nc2ccc(Cl)cc2)c1 (stereo not drawn) | inconclusive: 22.4 µM [inhibitor, single point] | 
13 | O=C(CSc1ncn(-c2ccccc2)n1)Nc1nc(-c2ccccc2)cs1 | inconclusive: 7.08 µM [activator, partial curve] | 
14 | Cc1cccc(CN2C(=O)/C(=C\c3ccc(C(=O)NCCCN4CCN(C)CC4)cc3)Oc3ccccc32)c1 | inconclusive: 22.4 µM [inhibitor, single point] | 
15 | COc1ccc(N2CCN(C(=O)c3ccc(NS(=O)(=O)c4ccc(F)c(F)c4)cc3)CC2)cc1 | inconclusive: 6.31 µM [activator, single point] | 
16 | Cc1ccccc1-c1noc(N)c1C#N | active: 5.62 µM | 
17 | CC(C)c1ccc(C(=O)N/N=C/c2cccc(Cl)c2Cl)cc1 | inconclusive: 10 µM [activator, partial curve] | 
18 | CCOc1ccc(-c2nnc(Nc3ccc(OC)c(C(=O)N4CCCCC4)c3)c3ccccc23)cc1 | inconclusive: 10 µM [activator, partial curve] | 
19 | CCN(c1ccccc1)S(=O)(=O)c1ccc(Cl)c(NC(=O)CSc2nnc(C)s2)c1 |  | inactive: 27.4%
20 | CCNc1c(NS(=O)(=O)c2ccc(Br)s2)c(=O)oc2ccccc12 |  | inactive: 7.73%
21 | CC(C)(C)OC(=O)NCCCCCc1nnc(SCc2cccc(F)c2)o1 | inconclusive: 31.6 µM [activator, single point] | 
22 | COc1cccc(NC(=O)c2cccc(C)c2[N+](=O)[O-])c1 | inconclusive: 35.5 µM [activator, single point] | 
23 | CCOC(=O)C1CCN(C(=O)COc2ccc(Br)cc2)CC1 | inconclusive: 20 µM [inhibitor, single point] | 
24 | Cn1c(=O)c2c(ncn2C[C@@H](O)CO)n(C)c1=O |  | inactive: -9.34% [at 2.98 µM]
25 | CC(C)Oc1cccc(C(=O)NC(=S)Nc2ccc(N3CCN(C)CC3)cc2)c1 | active: 5.62 µM | 

Row | SMILES | Potency | activity change, negative = inhibition
26 | O=C(O)C1(O)CC(O)C(O)C(O)C1 (stereo not drawn) |  | inactive: -11.4%
27 | O=[N+]([O-])c1cccc(/C=N/Nc2ncc(Br)cn2)c1 | inconclusive: 1.78 µM [activator, full curve, poor fit] | 
28 | Cc1c(C(=O)N2CCCCC2)c(S(=O)(=O)N2CCN(c3ccccc3F)CC2)c(C)n1C |  | inactive: 6.97%
29 | Cc1cccc(-c2cc3nc4c(c(NCc5ccco5)n3n2)CCCC4)c1 | inconclusive: 17.8 µM [inhibitor, single point] | 
30 | O=C(CCCC(=O)Nc1cccc(Br)c1)N/N=C/c1cc([N+](=O)[O-])ccc1O | inconclusive: 8.91 µM [inhibitor, partial curve] | 
31 | CCOc1cccc(/C=N/NC(=O)c2cccnc2)c1O | active: 0.199 µM | 
32 | COc1ccc([N+](=O)[O-])cc1Nc1c2ccccc2nc2ccccc12 | inconclusive: 12.6 µM [activator, single point] | 
33 | CCOC(=O)c1ccc(N2C(=O)c3n[nH]c(C)c3C2c2ccc(OC)c(OC)c2)cc1 (stereo not drawn) | inconclusive: 5.01 µM [inhibitor, full curve] | 
34 | CCOC(=O)c1[nH]c(C)c(C(=O)Nc2ccccc2C)c1C |  | inactive: 1.58%
35 | CC(C)(C)c1nnc(NC(=O)CCn2cnc3ccccc3c2=O)s1 | inconclusive: 12.6 µM [activator, partial curve] | 
36 | CCN(C(=O)CN1C(=O)/C(=C/c2ccc(F)cc2)SC1=S)C1CCS(=O)(=O)C1 (stereo not drawn) |  | inactive: -12.7%
37 | O=C1CCC(=O)N1CCCCCc1nc(-c2ccccc2)no1 | inconclusive: 7.94 µM [activator, partial curve, poor fit] | 
38 | O=C1Nc2ccccc2/C1=C/c1cccnc1 | inconclusive: 17.8 µM [inhibitor, single point] | 
39 | Oc1ccc2ccccc2c1C=Nc1ccc(Cl)cn1 | inconclusive: 14.1 µM [inhibitor, single point] | 
40 | COc1ccc(CNC(=O)[C@H](C)[C@@H]2C[C@@]2(C)[C@@H](NC(=O)OCc2ccccc2)c2ccccc2)cc1OC | inactive and inconclusive: 35.5 µM [activator, single point] | 
41 | Cc1cc(C)n(-c2nc(SCC(=O)NCC3CCCO3)c3c4c(sc3n2)CCCC4)n1 (stereo not drawn) | inconclusive: 1.78 µM [inhibitor, full curve, poor fit] | 
42 | CCn1c(=NC(=O)CSC(C)=O)sc2cc(F)ccc21 | inconclusive: 25.1 µM [inhibitor, single point] | 
43 | Cc1ccc(N(CC(=O)NCCSCc2ccco2)S(=O)(=O)c2ccc(F)cc2)cc1 | inconclusive: 14.1 µM [activator, single point] | 
44 | CC(C)CN(c1ccccc1)S(=O)(=O)c1nnc(NC(=O)c2ccco2)s1 | inconclusive: 0.005 µM [inhibitor, full curve, poor fit] | 
45 | O=C(CSc1nnc(-c2ccc(O)cc2)n1Cc1ccccc1)NNC(=O)c1ccc(Br)cc1 |  | inactive: 9.17%
46 | COc1ccc(NCc2ccc(OC)c(Cn3ccnc3)c2)c(OC)c1 |  | inactive: -42.1%
47 | CC1CCCN(S(=O)(=O)c2ccc(S(=O)(=O)NC(C)c3cccs3)cc2)C1 (stereo not drawn) |  | inactive: 30.1%
48 | Cc1cc(-n2c(C)cc(C(=O)CSc3ccc4c(c3)OCCO4)c2C)no1 |  | inactive: 41.6%
49 | O=C(NCCSCc1ccco1)Nc1cccc(Cl)c1 | inconclusive: 5.62 µM [activator, full curve, poor fit] | 
50 | COc1ccc(C(=O)Nc2cccc(C(=O)N/N=C/c3ccc(OC)cc3OC)c2)cc1 | active: 10 µM | 

Row | SMILES | Potency | activity change, negative = inhibition
51 | COc1ccccc1NS(=O)(=O)c1cc(N/C(=N\S(=O)(=O)c2ccccc2)c2ccc(F)cc2)ccc1Cl | inconclusive: 8.91 µM [activator, partial curve] | 
52 | CCCn1cc(SCC(=O)Nc2nnc(C)s2)c2ccccc21 | inconclusive: 22.4 µM [inhibitor, single point] | 
53 | CC(C)N(C(=O)c1ccccc1-c1ccccc1)C(C)C |  | inactive: 28.7%
54 | CSc1nc2ccc(S(=O)(=O)NC3CCCCC3)cc2s1 | inconclusive: 25.1 µM [activator, single point] | 
55 | CCOC(=O)c1cccc(NC(=O)c2cc3ccccc3o2)c1 | inconclusive: 12.6 µM [inhibitor, single point] | 
56 | COc1ccc(C2NCCc3c2[nH]c2ccccc32)cc1COc1ccc(F)cc1 (stereo not drawn) | active: 10 µM | 
57 | O=[N+]([O-])c1cccc(S(=O)(=O)c2ccc(N3CCCCC3)c([N+](=O)[O-])c2)c1 | inconclusive: 14.1 µM [activator, single point] | 
58 | Cc1cc(C)c(S(=O)(=O)NCc2ccc3c(c2)cc(C)n3C)c(C)c1 | inconclusive: 15.8 µM [activator, single point] | 
59 | CCc1ccc(CN(C)Cc2nc(Cc3cccc(C(F)(F)F)c3)no2)nc1 | active: 2.24 µM | 
60 | CCCSc1nsc(NC(=O)CC)n1 |  | inactive: -27.1%
61 | O=C(N/N=C/c1cc([N+](=O)[O-])ccc1O)c1cccc2ccccc12 | active: 2.82 µM | 
62 | O=C(N/N=C/c1ccccc1OC(=O)c1ccc2c(c1)OCO2)c1ccccc1 | active: 11.2 µM | 
63 | COc1ccc2nc(N=Nc3ccc(N(C)C)cc3)sc2c1 | active: 14.1 µM | 
64 | CC1CCc2cc(F)ccc2N1S(=O)(=O)c1ccc(F)cc1 (stereo not drawn) | active: 10 µM | 
65 | Cc1cc(C(=O)Nc2ccc(OCc3ccccc3)cc2)c(C)o1 | inconclusive: 7.08 µM [inhibitor, partial curve] | 
66 | COc1ccc(OC)c2[nH]c(=O)c(CCNS(=O)(=O)c3ccccc3)cc12 | inconclusive: 10 µM [activator, partial curve] | 
67 | CCCC12C(=O)C(C)(C(c3ccccc3)=C1c1ccccc1)C1C(=O)N(c3ccc(C)cc3)C(=O)C12 (stereo not drawn) | inconclusive: 11.2 µM [activator, partial curve] | 
68 | CCC1S/C(=N/N=C/c2cccs2)NC1=O (stereo not drawn) | active: 0.794 µM | 
69 | CC(=O)c1c(C)[nH]c(C(=O)OCc2ccc(F)cc2Cl)c1C | inconclusive: 11.2 µM [activator, partial curve] | 
70 | CNC(=O)c1cc(C(=O)c2ccc(Cl)cc2)c[nH]1 |  | inactive: 27.9%
71 | Cc1ccc(O)c(-c2cc(C(=O)Nc3ccc(S(=O)(=O)N4CC(C)OC(C)C4)cc3)[nH]n2)c1 (stereo not drawn) | inconclusive: 35.5 µM [inhibitor, single point] | 
72 | COCCCNC(=S)Nc1cc2oc3ccccc3c2cc1OC | active: 5.62 µM | 
73 | COc1cccc(CN(C)C(=O)Nc2cccc(C(F)(F)F)c2)c1OC | inconclusive: 17.8 µM [activator, single point] | 

Source: PubChem BioAssay AID2551 (National Center for Advancing Translational Sciences (NCATS), 2010)
